Data published in publication PMC10445738.
Read-outs that look alike come from different tables or passages of the source. Results are given in words; binding and its absence hold for the method and conditions named. Binding seen in cells or lysates may run through a third protein. These calls come from enrichment with a bait or labelling near it, and not all partners need be listed. For some of these results: A no says only that the protein was not detected with the bait.

The chains behind the UniProt entries cited, without tags or fusion partners. Where a name states a change or a piece, a line headed by the entry shows the natural chain unless it says otherwise. Residues count along the entry.
UniProt Q96BN8: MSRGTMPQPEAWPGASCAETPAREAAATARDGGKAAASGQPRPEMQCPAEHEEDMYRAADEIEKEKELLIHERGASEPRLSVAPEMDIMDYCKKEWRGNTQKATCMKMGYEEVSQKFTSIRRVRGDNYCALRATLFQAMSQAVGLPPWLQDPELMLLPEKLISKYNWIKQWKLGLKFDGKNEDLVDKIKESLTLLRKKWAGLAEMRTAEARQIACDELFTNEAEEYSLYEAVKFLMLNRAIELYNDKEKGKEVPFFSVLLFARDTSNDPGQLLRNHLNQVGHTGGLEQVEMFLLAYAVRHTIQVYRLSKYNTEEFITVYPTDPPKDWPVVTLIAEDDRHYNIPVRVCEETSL
FLAG-OTULIN^C105X: residues 1-105 of Q96BN8
FLAG-OTULIN^Δ54: residues 55-352 of Q96BN8
UniProt Q15599: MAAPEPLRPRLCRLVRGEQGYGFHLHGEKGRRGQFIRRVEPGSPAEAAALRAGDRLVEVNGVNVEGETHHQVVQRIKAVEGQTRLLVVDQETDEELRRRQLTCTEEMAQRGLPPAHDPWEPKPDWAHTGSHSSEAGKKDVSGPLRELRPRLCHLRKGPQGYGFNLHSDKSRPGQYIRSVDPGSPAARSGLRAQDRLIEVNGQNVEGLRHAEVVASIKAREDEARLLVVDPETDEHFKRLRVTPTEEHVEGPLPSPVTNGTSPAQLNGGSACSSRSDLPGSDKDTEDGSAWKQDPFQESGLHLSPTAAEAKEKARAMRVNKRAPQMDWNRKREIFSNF
UniProt Q14160: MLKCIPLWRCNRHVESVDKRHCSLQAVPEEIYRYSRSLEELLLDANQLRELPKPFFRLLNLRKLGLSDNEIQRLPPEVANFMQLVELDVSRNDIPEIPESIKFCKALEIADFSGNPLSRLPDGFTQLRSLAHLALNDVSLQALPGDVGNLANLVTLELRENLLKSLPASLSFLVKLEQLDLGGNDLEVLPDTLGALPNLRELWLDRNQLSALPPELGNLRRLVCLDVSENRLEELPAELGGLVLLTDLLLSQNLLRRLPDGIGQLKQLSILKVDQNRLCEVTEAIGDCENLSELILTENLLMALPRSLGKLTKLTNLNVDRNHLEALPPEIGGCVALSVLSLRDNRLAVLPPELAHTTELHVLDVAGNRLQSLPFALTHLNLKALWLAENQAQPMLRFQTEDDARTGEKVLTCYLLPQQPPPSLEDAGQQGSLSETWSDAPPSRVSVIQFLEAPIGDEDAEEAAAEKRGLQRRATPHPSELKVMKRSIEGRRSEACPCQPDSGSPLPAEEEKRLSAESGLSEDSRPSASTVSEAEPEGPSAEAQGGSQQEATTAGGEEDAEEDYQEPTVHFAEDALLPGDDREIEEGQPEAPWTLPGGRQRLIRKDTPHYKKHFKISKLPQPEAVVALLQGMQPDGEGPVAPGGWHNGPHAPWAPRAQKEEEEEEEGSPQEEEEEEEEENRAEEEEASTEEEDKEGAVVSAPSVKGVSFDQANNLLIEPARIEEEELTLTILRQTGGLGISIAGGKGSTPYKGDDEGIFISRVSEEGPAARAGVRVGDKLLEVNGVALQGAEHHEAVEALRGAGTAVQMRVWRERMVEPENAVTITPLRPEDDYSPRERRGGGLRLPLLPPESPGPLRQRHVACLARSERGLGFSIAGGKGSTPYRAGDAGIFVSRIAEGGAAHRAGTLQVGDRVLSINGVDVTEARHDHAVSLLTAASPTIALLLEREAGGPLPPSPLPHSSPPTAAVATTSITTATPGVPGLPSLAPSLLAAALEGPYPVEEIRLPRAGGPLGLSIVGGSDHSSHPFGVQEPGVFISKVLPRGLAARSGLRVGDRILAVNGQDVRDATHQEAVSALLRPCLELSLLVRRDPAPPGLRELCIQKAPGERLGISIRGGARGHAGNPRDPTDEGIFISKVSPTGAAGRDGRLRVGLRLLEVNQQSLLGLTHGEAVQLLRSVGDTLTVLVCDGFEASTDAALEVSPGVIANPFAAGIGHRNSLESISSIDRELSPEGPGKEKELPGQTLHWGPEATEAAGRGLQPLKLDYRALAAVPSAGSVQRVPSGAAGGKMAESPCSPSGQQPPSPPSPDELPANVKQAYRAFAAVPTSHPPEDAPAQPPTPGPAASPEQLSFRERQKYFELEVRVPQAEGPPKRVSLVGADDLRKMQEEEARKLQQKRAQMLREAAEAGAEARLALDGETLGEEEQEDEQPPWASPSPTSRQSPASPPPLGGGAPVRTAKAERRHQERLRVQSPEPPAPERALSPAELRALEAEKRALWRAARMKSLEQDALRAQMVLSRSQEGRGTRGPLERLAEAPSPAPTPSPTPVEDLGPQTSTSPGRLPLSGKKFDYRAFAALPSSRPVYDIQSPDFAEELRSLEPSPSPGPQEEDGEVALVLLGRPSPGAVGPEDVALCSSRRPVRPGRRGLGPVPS

Columns and labels:
Assay in all cases: affinity purification with mass spectrometry; FLAG-tagged OTULIN baits stably expressed in HEK293 cells; cleared lysates (50 mM HEPES-KOH pH 8.0, 100 mM KCl, 2 mM EDTA, 0.1% NP40, 10% glycerol) on anti-FLAG M2 magnetic beads for 2 h; on-bead trypsin digestion, LC-MS/MS, SAINT against FLAG-vector controls; endogenous preys
FLAG-OTULIN^ΔPBM = FLAG-OTULIN^ΔPBM (UniProt Q96BN8)
FLAG-OTULIN^C105X = FLAG-OTULIN^C105X (UniProt Q96BN8)
[1] = biological target: FLAG-tagged full-length OTULIN (WT) (UniProt Q96BN8)
FLAG-OTULIN^W96R = FLAG-OTULIN^W96R (UniProt Q96BN8)
FLAG-OTULIN^Δ54 = FLAG-OTULIN^Δ54 (UniProt Q96BN8)
[2] = biological target: FLAG-tagged full-length OTULIN (WT) (UniProt Q96BN8); remark: listed apart in the source

With “SLC9A3R2, endogenous (from UniProt Q15599 1-337)” the binding (FLAG-OTULIN^ΔPBM) was “no binding”, the binding (FLAG-OTULIN^C105X) was “no binding” and the binding [1] was “binds”.

For “scribble (SCRIB), endogenous (from UniProt Q14160 1-1655)”, the binding (FLAG-OTULIN^W96R) was “binds”, the binding (FLAG-OTULIN^Δ54) was “binds” and the binding (FLAG-OTULIN^ΔPBM) was “no binding”. The binding (FLAG-OTULIN^C105X) was “no binding” and the binding [1] was “binds”.

B1: coat protein complex II (COPII) component Sec24b, endogenous (protein, UniProt O95487 1-1268)
chain: MSAPAGSSHPAASARIPPKFGGAAVSGAAAPAGPGAGPAPHQQNGPAQNQMQVPSGYGLHHQNYIAPSGHYSQGPGKMTSLPLDTQCGDYYSALYTVPTQNVTPNTVNQQPGAQQLYSRGPPAPHIVGSTLGSFQGAASSASHLHTSASQPYSSFVNHYNSPAMYSASSSVASQGFPSTCGHYAMSTVSNAAYPSVSYPSLPAGDTYGQMFTSQNAPTVRPVKDNSFSGQNTAISHPSPLPPLPSQQHHQQQSLSGYSTLTWSSPGLPSTQDNLIRNHTGSLAVANNNPTITVADSLSCPVMQNVQPPKSSPVVSTVLSGSSGSSSTRTPPTANHPVEPVTSVTQPSELLQQKGVQYGEYVNNQASSAPTPLSSTSDDEEEEEEDEEAGVDSSSTTSSASPMPNSYDALEGGSYPDMLSSSASSPAPDPAPEPDPASAPAPASAPAPVVPQPSKMAKPFGYGYPTLQPGYQNATAPLISGVQPSNPVYSGFQQYPQQYPGVNQLSSSIGGLSLQSSPQPESLRPVNLTQERNILPMTPVWAPVPNLNADLKKLNCSPDSFRCTLTNIPQTQALLNKAKLPLGLLLHPFRDLTQLPVITSNTIVRCRSCRTYINPFVSFIDQRRWKCNLCYRVNDVPEEFMYNPLTRSYGEPHKRPEVQNSTVEFIASSDYMLRPPQPAVYLFVLDVSHNAVEAGYLTILCQSLLENLDKLPGDSRTRIGFMTFDSTIHFYNLQEGLSQPQMLIVSDIDDVFLPTPDSLLVNLYESKELIKDLLNALPNMFTNTRETHSALGPALQAAFKLMSPTGGRVSVFQTQLPSLGAGLLQSREDPNQRSSTKVVQHLGPATDFYKKLALDCSGQQTAVDLFLLSSQYSDLASLACMSKYSAGCIYYYPSFHYTHNPSQAEKLQKDLKRYLTRKIGFEAVMRIRCTKGLSMHTFHGNFFVRSTDLLSLANINPDAGFAVQLSIEESLTDTSLVCFQTALLYTSSKGERRIRVHTLCLPVVSSLADVYAGVDVQAAICLLANMAVDRSVSSSLSDARDALVNAVVDSLSAYGSTVSNLQHSALMAPSSLKLFPLYVLALLKQKAFRTGTSTRLDDRVYAMCQIKSQPLVHLMKMIHPNLYRIDRLTDEGAVHVNDRIVPQPPLQKLSAEKLTREGAFLMDCGSVFYIWVGKGCDNNFIEDVLGYTNFASIPQKMTHLPELDTLSSERARSFITWLRDSRPLSPILHIVKDESPAKAEFFQHLIEDRTEAAFSYYEFLLHVQQQICK
In the case of B1, the binding [2] is reported as “no binding”.

B2: GTP-binding protein Arfrp1, endogenous (protein, UniProt Q13795 1-201)
chain: MYTLLSGLYKYMFQKDEYCILILGLDNAGKTTFLEQSKTRFNKNYKGMSLSKITTTVGLNIGTVDVGKARLMFWDLGGQEELQSLWDKYYAECHGVIYVIDSTDEERLAESKQAFEKVVTSEALCGVPVLVLANKQDVETCLSIPDIKTAFSDCTSKIGRRDCLTQACSALTGKGVREGIEWMVKCVVRNVHRPPRQRDIT
With B2 the binding [2] was “no binding”.
